Laboratory results published in PubChem BioAssay AID328 (DTP/NCI, 2004).
The list does not hold the whole screen: it gathers tests that were run many times, whatever their T/C, doses with no T/C, and many T/C values between a quarter and a half above the control. Further doses and runs are listed elsewhere. T/C gives the treated animals as a percentage of the vehicle group. Some doses have a count of surviving animals in place of a T/C: the source files T/C as zero there, which appears to mark a toxic dose or a test without result, not a measured value. Some doses without a T/C left all or most animals alive at the check, yet need not have been tolerated: survival well below the control is almost never listed, so the zero probably covers shortened survival too. Counts of survivors are from the toxicity check (mostly the fifth day) where no day follows; animals may have died later. Schedule codes are those of the source, read here as Q, the interval in days (D) or hours (H), X, the number of doses. For survival time, the PubChem record calls one and a half times the control and up active, and a quarter to a half above the control has no call in these data; cut-offs in other NCI protocols can differ. Some T/C values are followed by the survivors on the day toxicity was checked, most often the fifth; where none is given, no animal had died by that day. Some entries were tested several times; their values stand side by side, smallest first.

System: BDF1 mice, P388 leukemia ip, median survival T/C
Test: NCI In Vivo Anticancer Drug Screen. Data for tumor model P388 Leukemia (intraperitoneal) in B6D2F1 (BDF1) mice
Details: T/C endpoint: median survival time, higher T/C = longer survival
In short: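 In tumour-bearing mice, survival after compound treatment is set against the vehicle group and given as a quotient.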

`c1ccc2c(c1)C1=NCCN1c1ccccc1-2` was tested, and the T/C (dose: 40.0 mg/kg/injection, schedule: Q01DX009 (ip), vehicle: Klucel (hydroxypropylcellulose) (HPC)) was 125 and 136 % of control [5 of 6 alive], the survivor count (dose: 60.0 mg/kg/injection, schedule: Q01DX009 (ip), vehicle: Klucel (hydroxypropylcellulose) (HPC)) was 0 of 6 and the survivor count (dose: 100.0 mg/kg/injection, schedule: Q04DX003 (ip), vehicle: Klucel (hydroxypropylcellulose) (HPC)) was 0 of 6. The survivor count (dose: 200.0 mg/kg/injection, schedule: Q04DX003 (ip), vehicle: Klucel (hydroxypropylcellulose) (HPC)) was 0 of 6 and the survivor count (dose: 400.0 mg/kg/injection, schedule: Q04DX003 (ip), vehicle: Klucel (hydroxypropylcellulose) (HPC)) was 0 of 6.

With `C=C(CC(=O)O)C(=O)O` (tested in a mixture with another compound) the T/C (dose: 66.0 mg/kg/injection, schedule: Q01DX009 (ip), vehicle: saline, evaluated on day 20) was 133 % of control, the T/C (dose: 66.0 mg/kg/injection, schedule: Q01DX009 (ip), vehicle: saline, evaluated on day 30) was 129 % of control and the T/C (dose: 100.0 mg/kg/injection, schedule: Q01DX009 (ip), vehicle: saline, evaluated on day 20) was 125 % of control [4 of 6 alive]. The T/C (dose: 100.0 mg/kg/injection, schedule: Q01DX009 (ip), vehicle: saline, evaluated on day 30) was 129 % of control and the survivor count (dose: 150.0 mg/kg/injection, schedule: Q01DX009 (ip), vehicle: saline) was 6 of 6.

With `NC(=O)N/N=C/c1cccs1` the survivor count (dose: 12.5 mg/kg/injection, schedule: Q01DX009 (ip), vehicle: saline with Tween-80) was 6 of 6.

With `CC(=O)C/C(C)=N/NC(=O)c1ccncc1` the survivor count (dose: 75.0 mg/kg/injection, schedule: Q01DX009 (ip), vehicle: saline with Tween-80) was 7 of 7 and the survivor count (dose: 300.0 mg/kg/injection, schedule: Q01DX009 (ip), vehicle: saline with Tween-80) was 7 of 7.

For `c1ccc(C2=C(c3ccccc3)c3cccc4cccc2c34)cc1`, the survivor count (dose: 200.0 mg/kg/injection, schedule: Q01DX001 (ip), vehicle: Klucel (hydroxypropylcellulose) (HPC)) was 6 of 6.

For `O=P(N1CCCCCC1)(N1CC1)N1CC1`, the T/C (dose: 3.0 mg/kg/injection, schedule: Q01DX009 (ip), vehicle: saline) was 131 % of control, the T/C (dose: 11.0 mg/kg/injection, schedule: Q04DX003 (ip), vehicle: saline) was 141 % of control and the T/C (dose: 12.0 mg/kg/injection, schedule: Q01DX009 (ip), vehicle: saline) was 130 % of control. For the same compound, the T/C (dose: 18.0 mg/kg/injection, schedule: Q01DX009 (ip), vehicle: saline) was 130 % of control, the survivor count (dose: 100.0 mg/kg/injection, schedule: Q04DX003 (ip), vehicle: saline) was 1 of 6 and the survivor count (dose: 200.0 mg/kg/injection, schedule: Q04DX003 (ip), vehicle: saline) was 1 of 6. For the same compound, the survivor count (dose: 400.0 mg/kg/injection, schedule: Q04DX003 (ip), vehicle: saline) was 0 of 6.

In the case of `COc1ccc(/C(C#N)=C\c2ccnc3ccccc23)cc1`, the survivor count (dose: 100.0 mg/kg/injection, schedule: Q01DX009 (ip), vehicle: other) is reported as 3 of 4.

For `O=S1ON=C(C2CCC(C3=NOS(=O)O3)C2)O1` (stereo not given), the survivor count (dose: 200.0 mg/kg/injection, schedule: Q01DX005 (ip), vehicle: saline with Tween-80) was 4 of 5.

With `c1ccc(CSSCc2ccccc2)cc1` the survivor count (dose: 400.0 mg/kg/injection, schedule: Q01DX009 (ip), vehicle: Klucel (hydroxypropylcellulose) (HPC)) was 6 of 6.

In the case of `CCOC(=O)Nc1nc(NC(=O)OCC)c(Cl)nc1Cl`, the survivor count (dose: 50.0 mg/kg/injection, schedule: Q04DX003 (ip), vehicle: water) is reported as 6 of 6.

With `NC1CSSC1` the T/C (dose: 0.78 mg/kg/injection, schedule: Q01DX009 (ip), vehicle: water, evaluated on day 21) was 106 % of control, the T/C (dose: 0.78 mg/kg/injection, schedule: Q01DX009 (ip), vehicle: water, evaluated on day 30) was 97 and 108 % of control and the survivor count (dose: 0.78 mg/kg/injection, schedule: Q01DX009 (ip), vehicle: water) was 6 of 6. The T/C (dose: 1.56 mg/kg/injection, schedule: Q01DX009 (ip), vehicle: water, evaluated on day 21) was 108 % of control, the T/C (dose: 1.56 mg/kg/injection, schedule: Q01DX009 (ip), vehicle: water, evaluated on day 30) was 94, 100, 101 % of control and the T/C (dose: 3.12 mg/kg/injection, schedule: Q01DX009 (ip), vehicle: water, evaluated on day 21) was 101 % of control. The T/C (dose: 3.12 mg/kg/injection, schedule: Q01DX009 (ip), vehicle: water, evaluated on day 30) was 93, 97, 171 % of control, the survivor count (dose: 12.5 mg/kg/injection, schedule: Q01DX009 (ip), vehicle: water) was 5 of 6 and the survivor count (dose: 12.5 mg/kg/injection, schedule: Q04DX003 (ip), vehicle: water) was 0 of 6.

With `N#CC(C#N)=C(C#N)C#N` the survivor count (dose: 6.25 mg/kg/injection, schedule: Q04DX003 (ip), vehicle: Klucel (hydroxypropylcellulose) (HPC)) was 1 of 6.
